Measured values from PubChem BioAssay AID1347426 (Functional Genomics Laboratory (NCATS/FGL), 2020).
About 1,400 (4.5%) of roughly 31,000 sequences were called active.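 The calls were made as follows: active = median seed-adjusted z-score above 1 or below -1; inactive = the rest.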 This is one part of the list.

Test: Novel Modifiers of Survival Motor Neuron (SMN) Protein: Gene Identification via Genome-wide siRNA Screen;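 also: luminescence tracks full-length SMN protein made from the SMN2 reporter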
Conditions: HEK293T SMN2-luciferase reporter, siRNA knockdown, 72 h; actives lie on both sides
How it was run: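 HEK293T cells stably carrying an SMN2 promoter/splicing cassette–luciferase reporter were reverse-transfected with 1 pmol siRNA per well (druggable-genome library, 3 siRNAs per gene) and grown 72 h at 37 °C. Luminescence, normalized to negative-control siRNA and log10-transformed, was scored as MAD.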

Sequence | median seed-adjusted z-score
GAAAUUUAUUGACGACAGATT against CDYL | inactive: 0
CAUCCAUCCUACUUCAUCATT against ZNF667 | inactive: -0.101
CCUUAAAGGUGCGACUGAATT against FIGLA | inactive: -0.064
GCAAGAGCGAUGUCUACUATT against MBD2 | inactive: -0.067
CCUUGAUAGUGGUCGGGAATT against OSBPL3 | inactive: 0.0159
GGAAGAGACCUUUACCUGUTT against KLF3 | inactive: 0.628
CGAACAGCCUACACCUACATT against RFX2 | inactive: 0.271
GGAACAUUCCGACCUACAATT against PTDSS2 | inactive: 0.0941
CUUUCUAGAUGACAACUUCTT against NPBWR2 | inactive: 0.438
GGAGUACCAUAGAUACAGATT against PPIG | inactive: -0.0192
GCUCAGAACUUUAGUUUUATT against NUPL2 | inactive: 0.134
GGACCCAAGUCUUGCUGCATT against CARD18 | inactive: 0.568
AGUACAUGCAGGUACCUGUTT against DUSP18 | inactive: 0.13
CCACGAGUCUUCACAUGAATT against SSH3 | inactive: -0.0772
CGCAAGUACUAUUCCACCATT against SMOX | inactive: -0.148
GACGACCAAUUAUAGUUUATT against ZRANB1 | inactive: -0.347
CCUGCUAAAUUGGAUCAAATT against ITIH2 | inactive: 0.262
GGCUCUACCAGAUAGAAAATT against HUNK | inactive: -0.183
GGCAGUAGCUGACUUUCUATT against GPR109B | inactive: 0.321
GGAGGUGGUUUGAAUGCAATT against TIGD3 | inactive: 0.486
CUAACGUAAUGACUGCUUUTT against ELK4 | inactive: 0.235
GCAUCAUCCCUGGUACCAATT against SRCAP | inactive: -0.42
CAGUGAAGAUAUCGAAAAATT against PARP11 | inactive: 0.192

Sequence | median seed-adjusted z-score
GGCUUAUUGGAGCUCUUAATT against CSE1L | inactive: 0.425
CAAUCAAGUUUUACACCAATT against MAP3K15 | inactive: -0.315
AGAACUUUGAGUCCAUGUATT against TBX21 | inactive: -0.454
AGAUAUCAGUGGUAAUGCATT against ZNF789 | inactive: 0.0534
CGUGGUUAGUCUAAGUAAATT against SLC17A8 | inactive: -0.332
GCACGCUGAGGAAACGCAATT against PRKAR1B | inactive: -0.0406
GGAGUGUGACAAUAACAAUTT against RNF157 | inactive: 0.0197
GACUCUAGGAGAUAACAUUTT against SPPL2A | inactive: -0.358
CCACAGACCUCAUCGUCCATT against PCYT2 | inactive: 0.217
CCUUAAACCACCAAUUUAUTT against METTL2A | inactive: -0.49
GAAUCGGAGGCGUACGGAUTT against PCSK4 | inactive: 0.828
AGAUUCCCAGGGAACCAAATT against GRM6 | inactive: -0.0544
GAUCCUAAAUCAUGACUUATT against COX6B1 | inactive: -0.706
CGCCUACACUCCUACGUGUTT against ZDHHC24 | inactive: -0.695
GAGUAGAUCUGCUAAAAUUTT against GLA | inactive: -0.494
CCAAGACGAUGAGAGUAUATT against UGCGL2 | inactive: -0.456
CGAUAUGAAGUGUCUAAAATT against TXNDC10 | inactive: -0.0542
GUCCGACAUUUUCAACUUATT against TIGD7 | inactive: -0.116
ACAUCUUCGAGAUCAAUGATT against ACAA1 | inactive: 0.384
CCUCAUCACUCUUGUAGUATT against RAMP2 | inactive: 0.289
CCUCCUCGCAGGUACAAAATT against EDA2R | inactive: 0.424
AAGCCGCUGUGAAAGGCUATT against MDH2 | inactive: 0.185
GCCCUGCACUUUCUAGAGATT against PYCR2 | inactive: 0.00371

16 neighbouring records from above, for reference:
Sequence | median seed-adjusted z-score
GGACCCAAGUCUUGCUGCATT against CARD18 | inactive: 0.568
AGUACAUGCAGGUACCUGUTT against DUSP18 | inactive: 0.13
CCACGAGUCUUCACAUGAATT against SSH3 | inactive: -0.0772
CGCAAGUACUAUUCCACCATT against SMOX | inactive: -0.148
GACGACCAAUUAUAGUUUATT against ZRANB1 | inactive: -0.347
CCUGCUAAAUUGGAUCAAATT against ITIH2 | inactive: 0.262
GGCUCUACCAGAUAGAAAATT against HUNK | inactive: -0.183
GGCAGUAGCUGACUUUCUATT against GPR109B | inactive: 0.321
GGAGGUGGUUUGAAUGCAATT against TIGD3 | inactive: 0.486
CUAACGUAAUGACUGCUUUTT against ELK4 | inactive: 0.235
GCAUCAUCCCUGGUACCAATT against SRCAP | inactive: -0.42
CAGUGAAGAUAUCGAAAAATT against PARP11 | inactive: 0.192
GGCUUAUUGGAGCUCUUAATT against CSE1L | inactive: 0.425
CAAUCAAGUUUUACACCAATT against MAP3K15 | inactive: -0.315
AGAACUUUGAGUCCAUGUATT against TBX21 | inactive: -0.454
AGAUAUCAGUGGUAAUGCATT against ZNF789 | inactive: 0.0534

Remaining list, next part.

Sequence | median seed-adjusted z-score
AGACCAUCGCGGCUAAGAATT against DES | inactive: 0
AAAUGGGUGCAAAAAUACATT against CCL26 | inactive: -0.01
GCUGGAAUAUUGUAAUGGATT against NEK9 | inactive: 0.0698
GCUAAGAGCUUCGUGCUGATT against LGALS1 | inactive: 0.033
GGAGAUCUAUUCAAUGGGATT against SRPK1 | inactive: 0.37
CUGCGUUGUGCAUAACUUUTT against LPPR2 | inactive: 0.255
GAAAGGCAGUUUUCGUAAATT against NXF3 | inactive: 0.672
GGCAGUACCUUCUUCAAGATT against FOXN3 | inactive: -0.636
GGUUACUCGUCAAACAUAUTT against ANGPT1 | inactive: 0.289
GGAGAACCAGUGGAAUUCATT against LIN28B | inactive: 0.407
GGCUCUAUAUGAUUACCAATT against HCLS1 | inactive: 0.107
GGGACGAUCUUAACCACCATT against TRIM2 | inactive: -0.207
GCCUUGGAAUUCGCUGUUATT against ZBTB12 | inactive: 0.0993
GGUUCGUGUUUUAUUCGAATT against ATP9B | inactive: 0
GAGUUGAAGUUAAAGUAAATT against MORF4 | inactive: 0.0121
AGUCGGAGCUGGUAAACUATT against TTC9B | inactive: -0.272
CCAUGACUCAGAUAGUUCATT against SLC39A6 | inactive: -0.262
GGUCUAUACUGUCCGACAATT against SLC30A7 | inactive: 0.0492
CAUCUAAUGUCACUACCGATT against NDST3 | inactive: 0.476
ACAGGAACCUUUUAUGCUUTT against IRF4 | inactive: -0.332
CUCUUAUGUUGGAUAUGUATT against USP14 | inactive: 0
GUCACUUCAUUGAAAUUCATT against STYXL1 | inactive: -0.311
